For one substance, binding results are on record in PMC8262944.

Amino acid sequences for entries named in this document (tags omitted).
UniProt Q9UW86: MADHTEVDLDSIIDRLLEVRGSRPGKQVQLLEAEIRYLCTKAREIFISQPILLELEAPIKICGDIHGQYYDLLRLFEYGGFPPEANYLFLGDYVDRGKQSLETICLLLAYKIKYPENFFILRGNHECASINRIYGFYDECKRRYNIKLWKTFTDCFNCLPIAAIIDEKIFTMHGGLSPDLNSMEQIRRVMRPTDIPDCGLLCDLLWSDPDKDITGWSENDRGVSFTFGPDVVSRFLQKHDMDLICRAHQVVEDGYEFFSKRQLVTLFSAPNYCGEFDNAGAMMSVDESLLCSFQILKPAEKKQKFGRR

The assay has as its target eIF2γ::V5 (C-terminal V5-tagged eIF2γ, N. crassa NCU02810) (N. crassa) (UniProt Q7SEK4). The experiment in a line: co-IP; anti-V5 immunoprecipitation from N. crassa cell extracts (WT, eIF2γ::v5, eIF2γ^Δ2-62::v5 strains) on magnetic Dynabeads; Western blots of the IP with anti-P-eIF2α, total eIF2α, V5 and PPP-1 antibodies. (A western blot detects proteins with antibodies after separation by electrophoresis.)

Results are given in words; binding and its absence hold for the method and conditions named. Binding seen in cells or lysates may run through a third protein.

For “PPP-1 phosphatase (N. crassa NCU00043, homolog of yeast GLC7) (from UniProt Q9UW86 1-308) (enzyme)”, the binding result is given as “no binding”.
